Residues, ends and D or L forms follow the SMILES beside them.
What was measured:
[1] = Trp fluorescence emission shift upon titration with LUVs; type: binding; details: 12.5 µM peptide
[2] = as above; type: binding; details: 12.5 µM peptide; remark: listed apart in the source

What does the source list for `CC[C@H](C)[C@@H]1NC(=O)CNC(=O)[C@H](CCCNC(=N)N)NC(=O)[C@H](Cc2ccc(O)cc2)NC(=O)[C@@H]2CSSC[C@H](NC1=O)C(=O)N[C@@H](Cc1ccc(O)cc1)C(=O)N[C@@H](CCCNC(=N)N)C(=O)N[C@@H](CCCCN)C(=O)N[C@H](C(=O)N[C@@H](CCCNC(=N)N)C(N)=O)CSSC[C@H](NC(=O)[C@H](Cc1c[nH]c3ccccc13)NC(=O)[C@@H](N)CCCCN)C(=O)N[C@@H](Cc1ccccc1)C(=O)N[C@@H](CCCNC(=N)N)C(=O)N[C@@H](C(C)C)C(=O)N2` [TIII, Tachyplesin III] (HELM PEPTIDE1{K.W.C.F.R.V.C.Y.R.G.I.C.Y.R.K.C.R.[am]}$PEPTIDE1,PEPTIDE1,3:R3-16:R3|PEPTIDE1,PEPTIDE1,7:R3-12:R3$$$V2.0; N-terminus assumed)?
shift in fluorescence emission maximum wavelength (blue shift) ([1]; 1 mM POPC/POPG (4:1) LUVs): 23 nm; 0.5 [L] (lipid concentration required to achieve half of the maximum blue shift) ([1]; POPC/POPG (4:1) LUVs): 0.10 mM; shift in fluorescence emission maximum wavelength (blue shift) ([2]; 1 mM POPC/POPS (4:1) LUVs): 18 nm; 0.5 [L] (lipid concentration required to achieve half of the maximum blue shift) ([2]; POPC/POPS (4:1) LUVs): 0.30 mM

— article PMC6747087, “Characterization of Tachyplesin Peptides and Their Cyclized Analogues to Improve Antimicrobial and Anticancer Properties” (International Journal of Molecular Sciences, 2019)
